Measured values from US20210356472A1, “METHODS AND COMPOSITIONS FOR DETECTION AND VISUALIZATION OF OXIDATIVE STRESS-INDUCED CARBONYLATION IN CELLS” (The Research Foundation for The State University of New York, priority 2020, published 2021).

Assay: Limit of detection of TFCZ in A549 cell lysate
Settings: for limit of detection (LOD): in cell lysate of A549 lung cancer cells

SMILES | limit of detection, fold lower than BzCH (compared with BzCH) | limit of detection (LOD)
NNc1ccc2c(C(F)(F)F)cc(=O)oc2c1 [TFCH, 4-Trifluoromethyl-7-hydrazinyl-2H-chromen-2-one] | about 10 fold | about 89 nM
CCC=NNc1ccc2c(C(F)(F)F)cc(=O)oc2c1 [TFCZ, 7-(2-Propylidenehydrazinyl)-4-(trifluoromethyl)-2H-chromen-2-one] | – | ~89 nM
